Binding data for 1 substance are collected here from doi:10.1101/2021.06.03.447014.

The chains behind the UniProt entries cited, without tags or fusion partners.
UniProt Q86VP1: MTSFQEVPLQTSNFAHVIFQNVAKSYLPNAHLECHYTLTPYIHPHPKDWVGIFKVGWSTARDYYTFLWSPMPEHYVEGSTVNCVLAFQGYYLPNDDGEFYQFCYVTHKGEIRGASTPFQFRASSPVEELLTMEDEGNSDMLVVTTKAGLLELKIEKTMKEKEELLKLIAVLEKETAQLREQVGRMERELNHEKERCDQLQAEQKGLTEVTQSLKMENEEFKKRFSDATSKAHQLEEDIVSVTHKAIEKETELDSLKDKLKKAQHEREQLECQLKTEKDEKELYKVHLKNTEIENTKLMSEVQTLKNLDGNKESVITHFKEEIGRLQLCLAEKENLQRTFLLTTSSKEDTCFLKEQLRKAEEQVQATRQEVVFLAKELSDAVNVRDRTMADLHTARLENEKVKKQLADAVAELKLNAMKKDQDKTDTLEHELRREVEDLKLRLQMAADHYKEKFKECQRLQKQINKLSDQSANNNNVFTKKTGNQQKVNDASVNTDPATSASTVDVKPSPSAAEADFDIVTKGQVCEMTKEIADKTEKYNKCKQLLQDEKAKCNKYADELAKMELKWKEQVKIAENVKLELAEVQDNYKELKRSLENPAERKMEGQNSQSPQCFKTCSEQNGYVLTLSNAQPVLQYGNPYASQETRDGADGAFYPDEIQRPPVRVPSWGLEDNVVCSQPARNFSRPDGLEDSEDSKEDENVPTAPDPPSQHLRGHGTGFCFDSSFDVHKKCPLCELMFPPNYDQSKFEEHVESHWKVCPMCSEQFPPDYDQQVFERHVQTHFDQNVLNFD
UniProt P03418: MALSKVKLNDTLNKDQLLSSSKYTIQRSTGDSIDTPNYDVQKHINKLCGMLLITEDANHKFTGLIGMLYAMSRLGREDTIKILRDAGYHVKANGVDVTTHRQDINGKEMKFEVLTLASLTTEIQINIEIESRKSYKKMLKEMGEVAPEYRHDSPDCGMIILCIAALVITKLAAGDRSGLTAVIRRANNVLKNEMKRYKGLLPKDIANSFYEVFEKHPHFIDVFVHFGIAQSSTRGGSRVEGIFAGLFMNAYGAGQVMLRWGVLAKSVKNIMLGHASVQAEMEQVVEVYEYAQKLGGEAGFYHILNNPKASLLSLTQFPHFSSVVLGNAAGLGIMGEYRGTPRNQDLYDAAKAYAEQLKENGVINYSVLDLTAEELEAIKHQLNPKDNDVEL

The assay has as its target Flag-TAX1BP1 fusion protein (UniProt Q86VP1). Kind of assay: co-IP.

These are yes or no findings as the source states them, for the method shown. In cells and extracts the contact can be indirect. Some results given as binding are weak or reduced against the parent protein; the word gives no strength.

In the case of “RSV N protein expressed from plasmid p-N (from UniProt P03418 1-391)”, the binding entry is recorded as “binds”.
